PubChem BioAssay AID2417 (National Center for Advancing Translational Sciences (NCATS), 2010)
Hit rate of the full screen: of about 140,000 compounds, about 4,300 (3.1%) were called active. This list was built around the results that the source calls inconclusive (neither active nor inactive); the mix of calls is not that of the screen.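 How the source made its calls: active means readout at or below -70, meaning at least 70% loss of cells showing the perinucleolar compartment, a nuclear body marking cancer cells; inconclusive means readout between -30 and a set limit; inactive means the rest.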

experiment: High Content Assay for Compounds that inhibit the Assembly of the Perinucleolar Compartment; details: PC3M PTB-GFP, PNC prevalence imaging, 16 h; at 10 µM; active compounds read low;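 further: plate controls were DMSO wells for no effect and camptothecin positive control wells for full effect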
How it was run: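 Read-out is percentage of cells bearing a perinucleolar compartment, from automated 20x imaging of fixed, Hoechst-stained PC3M PTB-GFP cells. Cells were seeded 4 h, then exposed 16 h to compound (23 nl of library stock) in duplicate plates.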

Question: For `COc1ccc2c(CC(=O)NCC3CCC(C(=O)O)CC3)cc(=O)oc2c1` (stereo unspecified), which activity change (PNC), negative = inhibition is on record?
Answer: inconclusive: -45.6%

Question: For `COc1ccc(CCNc2cc(C)nc3c(-c4ccccc4)cnn23)cc1OC`, which activity change (PNC), negative = inhibition is on record?
Answer: inconclusive: -34.1%

Question: Which activity change (PNC), negative = inhibition does the source give for `CCCN1Cc2cccc(C(=O)Nc3ccc(C)cc3)c2C1=O` here?
Answer: inactive: 78.4%

Question: For `CSC1=NCCN1C(=O)c1c(F)cccc1F`, which activity change (PNC), negative = inhibition is on record?
Answer: inconclusive: -40.1%

Question: With `COc1ccc(NCc2nnc(SCC(=O)Nc3ccccc3OC)o2)cc1` as the compound, how does the activity change (PNC), negative = inhibition read?
Answer: active: -105%

Question: For `C=CCN1C(=O)C(CC(=O)Nc2ccc(C)cc2)SC1=Nc1c(C)n(C)n(-c2ccccc2)c1=O` (stereo unspecified), which activity change (PNC), negative = inhibition is on record?
Answer: inactive: 11%

Question: With `O=C(Nc1ccc(-c2cn3ccsc3n2)cc1)C1CC1` as the compound, how does the activity change (PNC), negative = inhibition read?
Answer: inconclusive: -30.4%

Question: Which activity change (PNC), negative = inhibition does the source give for `CC(C)CNC1=CC(=O)CC(c2ccco2)C1` (stereo unspecified) here?
Answer: active: -80.9%

Question: For `CC(C)(C)NC(=O)C1CCN(C(=O)c2ccc(-c3ccccc3)cc2)CC1`, which activity change (PNC), negative = inhibition is on record?
Answer: inconclusive: -57.9%

Question: Which activity change (PNC), negative = inhibition does the source give for `C=CCOC(=O)CCP(=O)(CCC(=O)OCC=C)c1ccccc1` here?
Answer: inactive: 30.7%

Question: With `CCCC(=O)N(CCN(C(=O)CCC)c1ccccc1)c1ccccc1` as the compound, how does the activity change (PNC), negative = inhibition read?
Answer: active: -100%

Question: For `COc1ccc(-n2nc(C(=O)NCC(=O)Nc3ccccn3)c3ccccc3c2=O)cc1Cl`, which activity change (PNC), negative = inhibition is on record?
Answer: inactive: 27%

Question: For `CCc1c(C)nc2ncnn2c1N1CCC(C(=O)N2CCN(c3ccccc3)CC2)CC1`, which activity change (PNC), negative = inhibition is on record?
Answer: active: -88.1%

Question: With `CC1=C(C(=O)Nc2ccccc2C)C2(CCCCC2)C(C(N)=O)C(=S)N1` (stereo unspecified) as the compound, how does the activity change (PNC), negative = inhibition read?
Answer: active: -85.4%

Question: For `CC1CCN(c2c(NCC3CCC(C(=O)NCc4ccccc4)CC3)c(=O)c2=O)CC1` (stereo unspecified), which activity change (PNC), negative = inhibition is on record?
Answer: inconclusive: -45.2%

Question: Which activity change (PNC), negative = inhibition does the source give for `COC(=O)CSc1nc2cc3c(cc2cc1C)OCCO3` here?
Answer: inconclusive: -56.4%

Question: Which activity change (PNC), negative = inhibition does the source give for `C/C(=N\NC(=O)c1ccccc1)c1ccc2c(c1)OCO2` here?
Answer: inconclusive: -57.7%

Question: Which activity change (PNC), negative = inhibition does the source give for `CCC(=O)N1CCc2cc(S(=O)(=O)NC(CC(C)C)C(=O)N3CCc4ccccc43)ccc21` (stereo unspecified) here?
Answer: inconclusive: -55.3%

Question: With `COc1ccccc1C(=O)NCC(=O)n1nc(C)cc1C` as the compound, how does the activity change (PNC), negative = inhibition read?
Answer: inconclusive: -58%

Question: With `CCN(C(=O)CCc1nc(-c2ccccc2F)no1)c1cc(OC)ccc1OC` as the compound, how does the activity change (PNC), negative = inhibition read?
Answer: inactive: 5.67%

Question: With `COC(=O)c1nn(-c2ccccc2)ccc1=O` as the compound, how does the activity change (PNC), negative = inhibition read?
Answer: inconclusive: -57.2%

Question: With `CC1(C)SC(=S)N(NC(=O)Nc2ccccc2)C1N(O)C(=O)Nc1cccc2ccccc12` (stereo unspecified) as the compound, how does the activity change (PNC), negative = inhibition read?
Answer: inconclusive: -39.2%

Question: With `COCC(=O)NCc1ccc2c(c1)cc(C)n2C` as the compound, how does the activity change (PNC), negative = inhibition read?
Answer: active: -113%

Question: Which activity change (PNC), negative = inhibition does the source give for `C/C(=N\NC(=O)c1nn(C)cc1Br)c1ccncc1` here?
Answer: inconclusive: -54.4%

Question: With `O=C(O)CC1CCCC(c2ccccc2)C1=O` (stereo unspecified) as the compound, how does the activity change (PNC), negative = inhibition read?
Answer: inconclusive: -49.7%

Question: For `Cc1cc([N+](=O)[O-])nn1CCCC(=O)Nc1sc2c(c1C(N)=O)CCCC2`, which activity change (PNC), negative = inhibition is on record?
Answer: inactive: -3.28%

Question: With `CC(C)c1[nH]nc2c1C(c1cccc(OC(=O)N3CCOCC3)c1)C(C#N)=C(N)O2` (stereo unspecified) as the compound, how does the activity change (PNC), negative = inhibition read?
Answer: inactive: -8.37%

Question: For `O=C(NC1(C(F)(F)F)NC(=O)N(C2CCCCC2)C1=O)c1cccs1` (stereo unspecified), which activity change (PNC), negative = inhibition is on record?
Answer: inactive: -17.4%

Question: For `O=C(c1sc2cc([N+](=O)[O-])ccc2c1Cl)N1CCOCC1`, which activity change (PNC), negative = inhibition is on record?
Answer: inactive: 13.1%

Question: With `COc1ccccc1NC(=O)C1CCCN1C(=O)NCc1ccccc1` (stereo unspecified) as the compound, how does the activity change (PNC), negative = inhibition read?
Answer: inconclusive: -33.7%

Question: Which activity change (PNC), negative = inhibition does the source give for `CC(=O)N(C)C1=C(O)c2ccccc2C(=O)C1=O` here?
Answer: inactive: 59.5%

Question: For `CSCC[C@H](NC(=O)OCc1ccccc1)C(=O)O`, which activity change (PNC), negative = inhibition is on record?
Answer: inconclusive: -55.8%

Question: For `Cc1cc(C)nc(NC(=O)c2ccc(Cl)cc2[N+](=O)[O-])c1`, which activity change (PNC), negative = inhibition is on record?
Answer: inconclusive: -35%

Question: For `COc1ccc(-c2nc(NC(=O)C3CCN(c4nc5ccccc5o4)CC3)sc2C)cc1`, which activity change (PNC), negative = inhibition is on record?
Answer: inconclusive: -34.9%

Question: With `CCN(CC)CCOc1ccc2nc(N(C)C)sc2c1` as the compound, how does the activity change (PNC), negative = inhibition read?
Answer: inconclusive: -31.1%

Question: With `COc1ccc(OC)c(C2C(C#N)=C(N)Oc3c2c(C)nn3-c2ccc(C)cc2)c1` (stereo unspecified) as the compound, how does the activity change (PNC), negative = inhibition read?
Answer: inconclusive: -30.5%

Question: Which activity change (PNC), negative = inhibition does the source give for `S=C(Nc1ccccc1)N1N=CCC1c1ccccc1` (stereo unspecified) here?
Answer: inactive: 38.4%

Question: With `COc1ccc(/C=C/C(=O)Nc2nonc2NC(C)=O)cc1` as the compound, how does the activity change (PNC), negative = inhibition read?
Answer: inconclusive: -46.3%

Question: With `CCn1c(SCC(=O)N2CCCCC2)nc(O)cc1=O` as the compound, how does the activity change (PNC), negative = inhibition read?
Answer: inactive: 35.3%

Question: For `CCn1ccc(C(=O)Nc2ccc(S(=O)(=O)Nc3ccccc3OC)cc2)n1`, which activity change (PNC), negative = inhibition is on record?
Answer: inconclusive: -74.9%

Question: For `Cc1ccc(Cn2ncc(Cl)c(Cl)c2=O)cc1`, which activity change (PNC), negative = inhibition is on record?
Answer: active: -105%

Question: For `CCOc1cccc(C(=O)Nc2ccc3oc(Cc4ccc(Cl)cc4)nc3c2)c1`, which activity change (PNC), negative = inhibition is on record?
Answer: inconclusive: -30.4%

Question: With `CCCCNC(=O)CSc1cc(=O)n(C)c2ccccc12` as the compound, how does the activity change (PNC), negative = inhibition read?
Answer: inactive: 11.5%

Question: For `N#Cc1ccc(C(=O)NCC(c2ccco2)N2CCCC2)cc1` (stereo unspecified), which activity change (PNC), negative = inhibition is on record?
Answer: inconclusive: -32.2%

Question: Which activity change (PNC), negative = inhibition does the source give for `CCC(NC(=O)c1ccccc1NC(=O)c1ccco1)C(=O)NC1CCCCC1` (stereo unspecified) here?
Answer: inconclusive: -69.6%

Question: With `CCc1ccccc1NC(=O)N1C2CCCC1CC(NC(C)=O)C2` (stereo unspecified) as the compound, how does the activity change (PNC), negative = inhibition read?
Answer: inconclusive: -50.7%
